# According to PubChem BioAssay AID1632 (University of Pittsburgh Molecular Library Screening Center, 2009):
# The other results are listed elsewhere or left out.
# Test system: hexokinase 1 [Trypanosoma brucei]
# Assay: TbHK1 enzyme inhibition, concentration series – biochemical, IC50, dose response (AID 1632)
# Details: recombinant TbHK1 enzyme assay, absorbance read-out, at 100 µM, stronger effect = higher value
smiles,measurement,value
O=P(Nc1nccs1)(c1ccccc1)c1nc2ccccc2s1 (stereo unspecified),inhibition,86.7%
